Measurements reported in PubChem BioAssay AID1259425 (University of Nebraska Medical Center, 2018)
Screen: 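Compare each knockdown with KSR1 silencing using changes in marker transcripts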 (primary screen). System: HCT116 human colon cancer cells. Reagents: siRNA pool against human genes, 50 nM siRNA. Measured: 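After 50 nM siRNA pool, branched-DNA assay measures six marker transcripts per well, minus blank, normalised to the geometric mean of two housekeeping transcripts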. Scale: BNIP3L mRNA: higher = more BNIP3L transcript after knockdown.
Here is one part, drawn at random, of about 14,000 reagents. Not all columns of the deposit are shown. Not given: the time to read-out.

CLDN12 (GeneID 9069) scored BNIP3L mRNA, set 1 = 0.0972.
Against SRSF6 (GeneID 6431) the deposit lists BNIP3L mRNA, set 1 = 0.0751.
After knock-down of CASZ1 (GeneID 54897), the record shows BNIP3L mRNA, set 1 = 0.0984.
Knock-down of ST8SIA3 (GeneID 51046) gave: BNIP3L mRNA, set 1 = 0.044.
Knock-down of DCAF5 (GeneID 8816) resulted in: BNIP3L mRNA, set 1 = 0.13.
After knock-down of PKD2L1 (GeneID 9033) the results were BNIP3L mRNA, set 1 = 0.0411.
Knock-down of FPGT (GeneID 8790) gave: BNIP3L mRNA, set 1 = 0.116.
For CRY1 (GeneID 1407), the values are BNIP3L mRNA, set 1 = 0.199.
IQSEC2 (GeneID 23096) showed BNIP3L mRNA, set 1 = 0.113.
With knock-down of CD1A (GeneID 909), the screen gave BNIP3L mRNA, set 1 = 0.153.
For KIF4A (GeneID 24137) the deposit lists BNIP3L mRNA, set 1 = 0.0508.
For APBA3 (GeneID 9546), the entry reads BNIP3L mRNA, set 1 = 0.113.
PFKFB4 (GeneID 5210) scored BNIP3L mRNA, set 1 = 0.0669.
With knock-down of EIF2AK3 (GeneID 9451) the results were BNIP3L mRNA, set 1 = 0.0388.
With knock-down of PLTP (GeneID 5360) the results were BNIP3L mRNA, set 1 = 0.0645.
FNBP1 (GeneID 23048) scored BNIP3L mRNA, set 1 = 0.105.
After knock-down of SFTPB (GeneID 6439) the results were BNIP3L mRNA, set 1 = 0.16.

An excerpt from the list above, for reference:
CASZ1 (GeneID 54897) | BNIP3L mRNA, set 1 = 0.0984
ST8SIA3 (GeneID 51046) | BNIP3L mRNA, set 1 = 0.044
DCAF5 (GeneID 8816) | BNIP3L mRNA, set 1 = 0.13
PKD2L1 (GeneID 9033) | BNIP3L mRNA, set 1 = 0.0411
FPGT (GeneID 8790) | BNIP3L mRNA, set 1 = 0.116

Continued.
With knock-down of EEA1 (GeneID 8411), the screen gave BNIP3L mRNA, set 1 = 0.0771.
MAML1 (GeneID 9794) gave BNIP3L mRNA, set 1 = 0.0246.
OR5P3 (GeneID 120066) scored BNIP3L mRNA, set 1 = 0.201.
Silencing of SENP6 (GeneID 26054) gave: BNIP3L mRNA, set 1 = 0.0797.
Silencing of PCDHGA4 (GeneID 56111) resulted in: BNIP3L mRNA, set 1 = 0.0702.
Against IL36R (GeneID 8808) the deposit lists BNIP3L mRNA, set 1 = 0.0583.
After knock-down of APOL2 (GeneID 23780), the record shows BNIP3L mRNA, set 1 = 0.0953.
For ATOH8 (GeneID 84913), the values are BNIP3L mRNA, set 1 = 0.116.
Depletion of FOXJ2 (GeneID 55810) resulted in: BNIP3L mRNA, set 1 = 0.0877.
After knock-down of IFNA1 (GeneID 3439), the screen gave BNIP3L mRNA, set 1 = 0.154.
Depletion of SFT2D3 (GeneID 84826) came out at: BNIP3L mRNA, set 1 = 0.238.
